Measurements as given in patent publication US20180235916A1, “ENHANCING BETA CELL REPLICATION AND/OR SURVIVAL” (priority 2015, published 2018).
At least one compound was matched to its structure with a doubt left.

Test system: human islets
Assay type: cell-based
Details: nifedipine 1 uM added to alprazolam cultures, data not shown
Procedure: FIG. 2. Human islets (50/well) were incubated in media with, or without, alprazolam (30 ng/ml) for 4 days in the presence of ^3H thymidine. Data shown are the average rate of proliferation relative to that of cultures with media alone (designated as 1). N=two independent studies with triplicate cultures. Data was very similar in both studies.
N=two independent studies

COC(=O)C1=C(C)NC(C)=C(C(=O)OC)C1c1ccccc1[N+](=O)[O-] [nifedipine]
effect on pro-mitotic effects of alprazolam in human islet cultures: blocked the pro-mitotic effects of alprazolam
